This is one part of the list.
compound: CN1CCc2c(c3ccccc3n2Cc2ccc(C(=O)NO)cc2)C1 [Tubastatin A]; test: log2 fold change, soluble protein after heating vs DMSO (PISA); higher = thermal stabilisation; K562 cells, 10 uM, 30 min; active = over 0.2 and 3.5 SD of the protein, either way, in both replicates (recomputed)
In short: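 Thermal stability values are relative to control samples and come from duplicates. They are expressed as log2 fold changes. For measurement, K562 cells (2×10^6 cells/mL) received 10 μM compound for 30 min, and aliquots were heated for 3 min over 48°C-58°C, pooled, and extracted at 4°C in PBS with 0.5% NP-40. Soluble protein, the supernatant after 21,000xg for 90 min, was quantified by TMTpro 16plex LC-MS/MS with equalised channel sums.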

Sequences of proteins named here, by UniProt entry; tags and fusion partners are left off. A change or cut given only in a name is not applied to a line headed by its entry.
UniProt P53667: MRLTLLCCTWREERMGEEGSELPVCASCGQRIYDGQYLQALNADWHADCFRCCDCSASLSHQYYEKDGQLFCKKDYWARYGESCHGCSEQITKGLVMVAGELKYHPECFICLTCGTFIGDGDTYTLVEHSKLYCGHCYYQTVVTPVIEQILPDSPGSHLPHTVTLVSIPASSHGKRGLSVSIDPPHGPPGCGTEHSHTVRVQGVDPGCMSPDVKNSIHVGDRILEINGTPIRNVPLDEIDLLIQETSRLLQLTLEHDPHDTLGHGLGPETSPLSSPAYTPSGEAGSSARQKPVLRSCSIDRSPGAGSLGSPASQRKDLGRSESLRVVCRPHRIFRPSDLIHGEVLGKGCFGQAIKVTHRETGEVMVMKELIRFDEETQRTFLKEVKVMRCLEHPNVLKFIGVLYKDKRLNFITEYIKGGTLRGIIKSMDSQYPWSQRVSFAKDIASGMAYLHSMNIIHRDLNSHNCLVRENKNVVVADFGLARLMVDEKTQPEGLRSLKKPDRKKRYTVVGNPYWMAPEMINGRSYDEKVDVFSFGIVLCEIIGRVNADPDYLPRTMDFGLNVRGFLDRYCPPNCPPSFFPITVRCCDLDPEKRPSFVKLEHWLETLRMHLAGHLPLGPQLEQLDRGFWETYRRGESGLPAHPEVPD
UniProt Q13571: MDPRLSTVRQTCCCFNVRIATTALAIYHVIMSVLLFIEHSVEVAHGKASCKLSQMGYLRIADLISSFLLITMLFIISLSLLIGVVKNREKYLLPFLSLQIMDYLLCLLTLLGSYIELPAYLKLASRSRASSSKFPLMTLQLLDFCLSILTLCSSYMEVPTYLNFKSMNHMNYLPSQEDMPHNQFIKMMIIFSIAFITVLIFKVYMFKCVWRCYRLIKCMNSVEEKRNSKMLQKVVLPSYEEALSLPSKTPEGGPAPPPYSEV
UniProt Q9BT23: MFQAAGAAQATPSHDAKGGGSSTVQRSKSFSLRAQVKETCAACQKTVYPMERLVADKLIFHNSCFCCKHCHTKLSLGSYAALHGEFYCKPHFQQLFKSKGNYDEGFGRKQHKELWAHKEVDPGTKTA
UniProt O15243: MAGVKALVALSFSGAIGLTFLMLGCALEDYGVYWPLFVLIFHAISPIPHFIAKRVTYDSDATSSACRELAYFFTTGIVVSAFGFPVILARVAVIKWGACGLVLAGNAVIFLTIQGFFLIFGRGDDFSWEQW
UniProt Q6ZUX7: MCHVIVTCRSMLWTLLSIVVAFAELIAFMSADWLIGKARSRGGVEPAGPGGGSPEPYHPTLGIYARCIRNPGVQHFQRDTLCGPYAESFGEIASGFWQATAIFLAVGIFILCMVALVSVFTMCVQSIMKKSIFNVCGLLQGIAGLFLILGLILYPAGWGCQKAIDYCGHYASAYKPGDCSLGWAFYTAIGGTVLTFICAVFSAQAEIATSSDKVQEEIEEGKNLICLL
UniProt Q5TKA1: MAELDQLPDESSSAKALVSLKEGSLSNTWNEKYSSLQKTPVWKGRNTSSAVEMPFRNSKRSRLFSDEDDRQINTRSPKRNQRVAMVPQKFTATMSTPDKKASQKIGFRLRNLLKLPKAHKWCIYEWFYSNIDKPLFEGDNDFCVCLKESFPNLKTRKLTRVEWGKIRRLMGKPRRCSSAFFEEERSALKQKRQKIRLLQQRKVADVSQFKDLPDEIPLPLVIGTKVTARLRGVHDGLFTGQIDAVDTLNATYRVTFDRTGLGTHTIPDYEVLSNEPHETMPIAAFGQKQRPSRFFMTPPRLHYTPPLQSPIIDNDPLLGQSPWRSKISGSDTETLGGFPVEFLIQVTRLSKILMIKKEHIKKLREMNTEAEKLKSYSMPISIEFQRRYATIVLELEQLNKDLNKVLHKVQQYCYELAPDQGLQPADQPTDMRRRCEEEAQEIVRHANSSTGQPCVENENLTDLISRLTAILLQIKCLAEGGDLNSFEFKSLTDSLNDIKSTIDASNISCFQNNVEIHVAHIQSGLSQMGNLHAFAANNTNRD
UniProt P02545: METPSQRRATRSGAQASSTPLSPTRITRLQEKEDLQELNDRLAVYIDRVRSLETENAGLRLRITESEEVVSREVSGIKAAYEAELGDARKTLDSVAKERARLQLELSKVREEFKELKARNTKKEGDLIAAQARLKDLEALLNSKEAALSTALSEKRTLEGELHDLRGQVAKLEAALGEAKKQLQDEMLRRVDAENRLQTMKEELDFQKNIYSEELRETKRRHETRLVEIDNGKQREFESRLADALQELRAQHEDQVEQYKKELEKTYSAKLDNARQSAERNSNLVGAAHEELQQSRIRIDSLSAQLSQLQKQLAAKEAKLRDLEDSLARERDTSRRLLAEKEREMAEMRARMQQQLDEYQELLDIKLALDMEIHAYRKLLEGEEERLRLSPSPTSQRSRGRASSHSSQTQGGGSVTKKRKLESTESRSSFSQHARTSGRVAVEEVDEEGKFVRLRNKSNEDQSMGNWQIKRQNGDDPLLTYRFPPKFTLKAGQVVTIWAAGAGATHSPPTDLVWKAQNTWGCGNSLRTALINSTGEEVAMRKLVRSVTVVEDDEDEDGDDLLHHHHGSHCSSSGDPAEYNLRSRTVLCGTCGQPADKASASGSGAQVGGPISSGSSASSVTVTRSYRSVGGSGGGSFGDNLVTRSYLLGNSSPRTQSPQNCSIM
UniProt P55268: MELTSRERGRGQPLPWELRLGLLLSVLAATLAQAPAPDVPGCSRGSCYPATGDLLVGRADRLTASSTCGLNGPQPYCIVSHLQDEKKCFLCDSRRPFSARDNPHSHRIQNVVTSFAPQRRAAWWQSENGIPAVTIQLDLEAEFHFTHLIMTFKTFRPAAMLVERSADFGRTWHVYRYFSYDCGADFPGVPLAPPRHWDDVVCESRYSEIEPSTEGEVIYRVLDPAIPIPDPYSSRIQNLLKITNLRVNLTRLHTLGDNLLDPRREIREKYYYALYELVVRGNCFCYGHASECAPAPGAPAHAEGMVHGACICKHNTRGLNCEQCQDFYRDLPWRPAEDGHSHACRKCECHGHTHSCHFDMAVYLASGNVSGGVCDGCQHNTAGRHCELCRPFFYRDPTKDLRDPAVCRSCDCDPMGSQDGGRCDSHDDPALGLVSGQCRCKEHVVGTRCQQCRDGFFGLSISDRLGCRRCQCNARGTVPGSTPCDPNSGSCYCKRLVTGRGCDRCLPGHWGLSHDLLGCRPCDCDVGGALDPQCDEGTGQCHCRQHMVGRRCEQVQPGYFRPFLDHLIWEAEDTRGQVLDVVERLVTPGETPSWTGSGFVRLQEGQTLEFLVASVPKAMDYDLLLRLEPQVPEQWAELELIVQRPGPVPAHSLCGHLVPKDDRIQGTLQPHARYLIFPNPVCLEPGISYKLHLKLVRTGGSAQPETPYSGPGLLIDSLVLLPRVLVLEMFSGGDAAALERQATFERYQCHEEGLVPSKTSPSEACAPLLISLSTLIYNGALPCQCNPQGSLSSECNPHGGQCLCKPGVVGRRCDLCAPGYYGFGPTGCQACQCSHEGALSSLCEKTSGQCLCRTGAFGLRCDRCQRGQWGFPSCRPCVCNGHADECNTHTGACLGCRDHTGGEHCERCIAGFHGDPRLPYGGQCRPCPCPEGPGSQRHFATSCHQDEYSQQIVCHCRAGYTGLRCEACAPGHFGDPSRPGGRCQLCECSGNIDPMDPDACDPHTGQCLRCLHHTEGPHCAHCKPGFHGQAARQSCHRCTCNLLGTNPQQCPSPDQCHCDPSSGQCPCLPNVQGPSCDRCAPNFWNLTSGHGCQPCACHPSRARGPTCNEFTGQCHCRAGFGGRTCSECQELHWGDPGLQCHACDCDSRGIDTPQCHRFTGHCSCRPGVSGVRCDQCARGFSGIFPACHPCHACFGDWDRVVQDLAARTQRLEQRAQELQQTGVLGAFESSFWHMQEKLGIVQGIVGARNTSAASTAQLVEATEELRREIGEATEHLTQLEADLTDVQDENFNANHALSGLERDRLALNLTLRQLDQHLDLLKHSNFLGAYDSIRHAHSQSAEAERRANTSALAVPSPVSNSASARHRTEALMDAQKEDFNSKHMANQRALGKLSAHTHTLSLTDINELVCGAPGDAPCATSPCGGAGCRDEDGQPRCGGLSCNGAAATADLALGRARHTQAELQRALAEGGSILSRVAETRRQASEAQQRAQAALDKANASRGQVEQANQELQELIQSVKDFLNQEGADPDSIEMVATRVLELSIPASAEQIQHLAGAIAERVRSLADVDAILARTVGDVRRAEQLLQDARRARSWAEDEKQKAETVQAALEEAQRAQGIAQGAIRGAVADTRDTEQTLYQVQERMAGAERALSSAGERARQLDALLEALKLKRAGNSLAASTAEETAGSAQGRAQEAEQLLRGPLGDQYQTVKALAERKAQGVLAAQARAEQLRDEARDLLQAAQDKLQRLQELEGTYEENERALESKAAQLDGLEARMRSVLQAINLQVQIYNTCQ
UniProt Q5T7N2: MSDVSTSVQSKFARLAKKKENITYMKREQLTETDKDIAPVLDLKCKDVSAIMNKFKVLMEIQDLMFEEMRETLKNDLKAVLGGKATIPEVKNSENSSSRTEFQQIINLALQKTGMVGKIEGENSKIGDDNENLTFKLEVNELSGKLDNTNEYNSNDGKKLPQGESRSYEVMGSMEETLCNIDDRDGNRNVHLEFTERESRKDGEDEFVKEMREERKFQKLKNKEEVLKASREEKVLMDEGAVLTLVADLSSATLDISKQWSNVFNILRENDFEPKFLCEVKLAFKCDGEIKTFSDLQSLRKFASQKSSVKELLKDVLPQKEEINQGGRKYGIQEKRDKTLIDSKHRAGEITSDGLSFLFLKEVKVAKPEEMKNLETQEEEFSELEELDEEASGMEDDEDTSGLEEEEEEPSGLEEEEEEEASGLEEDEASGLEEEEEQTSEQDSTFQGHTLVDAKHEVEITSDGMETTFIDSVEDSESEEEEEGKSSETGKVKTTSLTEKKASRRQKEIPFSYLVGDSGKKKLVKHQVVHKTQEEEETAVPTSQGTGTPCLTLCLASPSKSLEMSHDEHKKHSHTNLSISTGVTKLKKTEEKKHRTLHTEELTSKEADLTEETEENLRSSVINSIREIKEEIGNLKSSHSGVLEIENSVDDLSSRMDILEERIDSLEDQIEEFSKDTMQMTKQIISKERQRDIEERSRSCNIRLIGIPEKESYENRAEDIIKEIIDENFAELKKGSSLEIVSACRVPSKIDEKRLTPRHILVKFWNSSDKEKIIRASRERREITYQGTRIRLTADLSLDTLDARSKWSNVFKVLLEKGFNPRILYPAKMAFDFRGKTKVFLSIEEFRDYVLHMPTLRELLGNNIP
UniProt Q9BQD3: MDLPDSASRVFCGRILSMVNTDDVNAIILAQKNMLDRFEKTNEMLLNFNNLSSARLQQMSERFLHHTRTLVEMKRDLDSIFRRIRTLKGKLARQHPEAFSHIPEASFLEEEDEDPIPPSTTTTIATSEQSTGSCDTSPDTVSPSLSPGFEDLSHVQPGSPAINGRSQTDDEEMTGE
UniProt P13473: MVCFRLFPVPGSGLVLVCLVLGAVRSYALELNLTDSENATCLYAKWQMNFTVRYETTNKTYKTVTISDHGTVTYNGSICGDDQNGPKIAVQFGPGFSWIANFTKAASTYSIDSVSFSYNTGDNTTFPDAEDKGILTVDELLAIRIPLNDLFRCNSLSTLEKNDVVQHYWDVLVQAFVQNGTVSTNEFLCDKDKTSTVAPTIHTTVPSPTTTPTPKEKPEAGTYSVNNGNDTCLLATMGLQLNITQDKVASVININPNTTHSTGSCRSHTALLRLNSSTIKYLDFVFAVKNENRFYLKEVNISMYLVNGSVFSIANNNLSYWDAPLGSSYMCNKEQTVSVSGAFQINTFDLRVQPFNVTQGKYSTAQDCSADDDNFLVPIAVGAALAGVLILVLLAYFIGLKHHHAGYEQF
UniProt P80188: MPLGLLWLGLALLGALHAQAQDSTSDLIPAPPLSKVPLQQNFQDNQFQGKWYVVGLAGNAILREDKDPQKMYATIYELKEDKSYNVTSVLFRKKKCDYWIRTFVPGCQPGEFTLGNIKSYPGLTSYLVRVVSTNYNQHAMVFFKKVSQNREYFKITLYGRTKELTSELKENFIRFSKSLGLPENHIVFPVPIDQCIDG
UniProt Q15048: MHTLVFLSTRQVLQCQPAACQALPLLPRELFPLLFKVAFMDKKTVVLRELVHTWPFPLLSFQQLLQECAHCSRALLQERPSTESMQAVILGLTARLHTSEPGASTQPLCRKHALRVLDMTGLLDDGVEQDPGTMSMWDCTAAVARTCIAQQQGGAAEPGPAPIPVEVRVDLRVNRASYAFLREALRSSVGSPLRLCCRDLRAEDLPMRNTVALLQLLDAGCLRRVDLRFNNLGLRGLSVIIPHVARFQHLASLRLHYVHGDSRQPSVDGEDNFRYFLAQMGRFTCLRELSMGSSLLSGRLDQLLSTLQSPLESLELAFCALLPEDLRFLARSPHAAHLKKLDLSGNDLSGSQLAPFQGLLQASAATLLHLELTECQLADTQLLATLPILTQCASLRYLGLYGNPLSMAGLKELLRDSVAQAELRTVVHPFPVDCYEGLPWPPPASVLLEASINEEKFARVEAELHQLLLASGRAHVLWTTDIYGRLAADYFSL

log2 fold change, inactive:
LIMK1 (UniProt P53667) -0.345, LAPTM5 (UniProt Q13571) -0.143, LIMD2 (UniProt Q9BT23) 0.016, LRP1 (UniProt Q07954) 0.076, LEPROT (UniProt O15243) -0.133, LHFPL2 (UniProt Q6ZUX7) -0.002, LIN9 isoform 2 (UniProt Q5TKA1) -0.132, LMNA isoform 2 (UniProt P02545) 0.052, LAMB2 (UniProt P55268) 0.156, L1TD1 (UniProt Q5T7N2) 0.079, KXD1 (UniProt Q9BQD3) -0.01, LAMP2 isoform 2 (UniProt P13473) 0.021, LCN2 isoform 2 (UniProt P80188) 0.426, LRRC14 (UniProt Q15048) 0.089
